From ROBIN, a set of small-molecule microarray screens (doi:10.1002/anie.202211358).

Targets (5′ to 3′):
TPP: TPP riboswitch RNA three-way junction, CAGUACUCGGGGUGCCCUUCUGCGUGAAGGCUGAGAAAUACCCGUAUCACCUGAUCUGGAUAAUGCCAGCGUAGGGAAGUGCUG. About 160 hits among about 24,000 compounds.
PreQ1: PreQ1 riboswitch RNA pseudoknot, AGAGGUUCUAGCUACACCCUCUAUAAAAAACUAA. From B. subtilis. About 170 hits among about 24,000 compounds.
SAM-II: SAM-II riboswitch RNA pseudoknot, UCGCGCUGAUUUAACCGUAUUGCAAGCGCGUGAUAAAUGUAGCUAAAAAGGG. About 200 hits among about 21,000 compounds.

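Compounds were printed on reactive glass slides in duplicate spots, a dye-labelled oligonucleotide was laid over them, and the fluorescence left after washing was read. The data file lists only calls. An earlier report of the laboratory on the PreQ1, TPP and SAM-II riboswitches (doi:10.1038/s41467-019-09493-3) used 1 µM RNA for 2 h and required a mean Z-score above 3 (spot signal-to-noise against the whole library), a score well above that on a control array, and duplicate spots agreeing (coefficient of variation under 100); it then also set aside compounds that hit other targets, which this list keeps. The cut-offs behind this list may differ. These are primary screening calls, not affinities; a compound without a hit may have attached poorly or may still bind in solution.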 “active” means called a hit, “inactive” means screened and not called a hit. The compounds are a random part of those screened. A target missing from an entry has no call listed here.

{"compound": "Cc1cc(Nc2cccc(O)c2)c2cccc(C)c2n1", "TPP": "inactive", "PreQ1": "inactive", "SAM-II": "inactive"}
{"compound": "CC(C)(C)c1ccc(C(=O)Oc2cc(N)n(S(C)(=O)=O)n2)cc1", "TPP": "inactive", "PreQ1": "inactive", "SAM-II": "inactive"}
{"compound": "NCCOc1ccccc1Cc1ccccc1", "TPP": "inactive", "PreQ1": "inactive", "SAM-II": "inactive"}
{"compound": "O=C(c1cccc(C2CCCNC2)c1)N1CCc2ccccc2C1", "stereo": "configuration not stated", "TPP": "inactive", "PreQ1": "inactive", "SAM-II": "inactive"}
{"compound": "COc1cccc(C(O)CNC(=O)c2cnc(-c3ccc(C)cc3)nc2O)c1", "stereo": "configuration not stated", "TPP": "inactive", "PreQ1": "inactive", "SAM-II": "inactive"}
{"compound": "C=CCOC(=O)/C=C\\C(=O)NC(N)=O", "TPP": "inactive", "PreQ1": "inactive", "SAM-II": "inactive"}
{"compound": "Cl.O=[N+]([O-])c1cccc(C(O)CNCc2ccccc2)c1", "stereo": "configuration not stated", "TPP": "inactive", "PreQ1": "inactive", "SAM-II": "inactive"}
{"compound": "Cc1ccc(-c2noc(-c3nnn(-c4ccc(C)cc4C)c3N)n2)cc1", "TPP": "inactive", "PreQ1": "inactive"}
{"compound": "CCOC(=O)C(C)c1c(C(=O)c2ccc(C)nc2)c2ccccc2n1C", "stereo": "configuration not stated", "TPP": "inactive", "PreQ1": "inactive", "SAM-II": "inactive"}
{"compound": "CN(Cc1ccc(CO)o1)CC1CCN(c2ccccc2)C1", "stereo": "configuration not stated", "TPP": "inactive", "PreQ1": "inactive", "SAM-II": "inactive"}
{"compound": "O=C(N1CCC2(CCOCC2)CC1)C1(Nc2ccccc2)CCCC1", "TPP": "inactive", "PreQ1": "inactive", "SAM-II": "inactive"}
{"compound": "Nc1nc(-c2cc3c(ccc4ccccc43)oc2=O)cs1", "TPP": "inactive", "PreQ1": "inactive", "SAM-II": "inactive"}
{"compound": "NC1CCN(Cc2cccc(O)c2)CC1", "TPP": "inactive", "PreQ1": "inactive", "SAM-II": "inactive"}
{"compound": "COc1ccc(-c2noc(-c3cccnc3NCc3ccc(C)cc3)n2)cc1", "TPP": "inactive", "PreQ1": "inactive"}
{"compound": "CC(C)Nc1nc2c(-c3cccc(Br)c3)nnn2c2ccccc12", "TPP": "inactive", "PreQ1": "inactive", "SAM-II": "inactive"}
{"compound": "CNC(=O)[C@@H]1C[C@H](N)CN1CC=C(C)CCC=C(C)C", "TPP": "inactive", "PreQ1": "inactive", "SAM-II": "inactive"}
{"compound": "Cc1ccc2c(c1)SC(=Cc1ccc[n+](CCO)c1)N2C", "TPP": "inactive", "PreQ1": "inactive", "SAM-II": "inactive"}
{"compound": "N#CC1=C(N)N(c2c(F)cccc2F)C2=C(C(=O)CCC2)C1c1ccsc1", "stereo": "configuration not stated", "TPP": "inactive", "PreQ1": "inactive", "SAM-II": "inactive"}
{"compound": "Cc1noc(C)c1C1CCCN1C(=O)c1cn(CCN2CCNCC2)nn1", "stereo": "configuration not stated", "TPP": "inactive", "PreQ1": "inactive", "SAM-II": "inactive"}
{"compound": "CCOC(=O)N1CCC(Nc2c(N3CCN(c4ccc(C)cc4)C(C)C3)c(=O)c2=O)CC1", "stereo": "configuration not stated", "TPP": "inactive", "PreQ1": "inactive"}
{"compound": "Nc1nonc1C(=O)N1CCCN(C(=O)Nc2ccccc2)CC1", "TPP": "inactive", "PreQ1": "inactive"}
{"compound": "CSc1ncn(-c2nc(NC(C)C)nc(N(C)C)n2)n1", "TPP": "inactive", "PreQ1": "inactive"}
{"compound": "CCCNc1cc(C)nc2c(C)c(-c3ccc(Cl)cc3)nn12", "TPP": "inactive", "PreQ1": "inactive"}
{"compound": "CNCC(=O)N1CCCC1c1nc(C(C)C)no1", "stereo": "configuration not stated", "TPP": "inactive", "PreQ1": "inactive", "SAM-II": "inactive"}
{"compound": "CN1CCOc2cc(C(=O)N3CC[C@@H](c4ccc5c(c4)OCO5)[C@H](O)C3)ccc21", "TPP": "inactive", "PreQ1": "inactive", "SAM-II": "inactive"}
{"compound": "CC1=C(c2ccccc2)C=NNCC1=O", "TPP": "inactive", "PreQ1": "inactive", "SAM-II": "inactive"}
{"compound": "N#CC1=C(N)OC2=C(C(=O)CCC2)C1c1ccc(F)c(Br)c1", "stereo": "configuration not stated", "TPP": "inactive", "PreQ1": "inactive", "SAM-II": "inactive"}